Data source: PubChem BioAssay AID1259274 (Sanger Institute, 2017)

Purpose: 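Kinase knock-downs that cut colorectal cancer cell viability or boost drug killing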 (primary screen)
System: human RKO colorectal cancer cells
Knock-down reagent: siRNA pool against human genes
Challenge: anchor drugs BYL719 at 1 µM, cetuximab at 5 µg/ml or trametinib at 10 nM; DMSO vehicle as the no-drug arm
Measured: 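Viability as fraction of non-targeting pool 2 control, averaged across replicates, robust z-score for single knock-down, and a combination synergy score per anchor drug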
Scale: viability z-score, siRNA alone: higher = more viable cells; low values mean essential gene
Rule for the call: 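Essential when the robust viability z-score with siRNA only falls below -3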
Meaning of the calls: active = essential when knocked down alone; inactive = no change alone
Here is an unselected part of 794 reagents. 11 of all reagents (1.4%) were called active. 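Calls rest on knock-down without drug only; synergy scores with anchor drugs were not used for the essential call.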 Not all columns of the deposit are shown. The record does not give: the amount of reagent, the time to read-out.

The first 2 entries, ahead of the listing:
no.	target gene	viability z-score, siRNA alone	call
1	STK26 (GeneID 51765)	0.455	inactive
2	MARK1 (GeneID 4139)	-1.51	inactive

The listing, from the first entry:
no.	target gene	viability z-score, siRNA alone	call
1	STK26 (GeneID 51765)	0.455	inactive
2	MARK1 (GeneID 4139)	-1.51	inactive
3	ATM (GeneID 472)	-0.465	inactive
4	PTK2 (GeneID 5747)	0.29	inactive
5	ERBB3 (GeneID 2065)	0.274	inactive
6	NEK1 (GeneID 4750)	-1.06	inactive
7	DCK (GeneID 1633)	-1.83	inactive
8	PRKCI (GeneID 5584)	-1.05	inactive
9	STK11 (GeneID 6794)	0.427	inactive
10	PDK3 (GeneID 5165)	-0.0236	inactive
11	PTGS1 (GeneID 5742)	-0.757	inactive
12	PRKAR1B (GeneID 5575)	-0.121	inactive
13	TPK1 (GeneID 27010)	-0.966	inactive
14	N4BP2 (GeneID 55728)	0.267	inactive
15	NTRK2 (GeneID 4915)	0.503	inactive
16	STK4 (GeneID 6789)	1.11	inactive
17	MYLK3 (GeneID 91807)	1.05	inactive
18	SF3B1 (GeneID 23451)	-5.61	active
19	DYRK4 (GeneID 8798)	0.375	inactive
20	EPHA2 (GeneID 1969)	1.19	inactive
21	MAP2K7 (GeneID 5609)	0.112	inactive
22	OBSCN (GeneID 84033)	0.152	inactive
23	TBK1 (GeneID 29110)	1.19	inactive
24	TEC (GeneID 7006)	-0.0587	inactive
25	ADCK2 (GeneID 90956)	0.168	inactive
26	MAP3K3 (GeneID 4215)	-0.425	inactive
27	JAK2 (GeneID 3717)	1.19	inactive
28	ROR2 (GeneID 4920)	-0.785	inactive
29	NEK4 (GeneID 6787)	-0.751	inactive
30	STK3 (GeneID 6788)	-0.73	inactive
31	BTK (GeneID 695)	-0.658	inactive
32	TEK (GeneID 7010)	1.19	inactive
33	CDK20 (GeneID 23552)	-1.62	inactive
34	DGKK (GeneID 139189)	0.371	inactive
